Data reported in PubChem BioAssay AID662 (National Center for Advancing Translational Sciences (NCATS), 2007).
The other results are listed elsewhere or left out. Further columns of the screen follow, without active or inactive calls. Compounds called inactive in the main read-out are mostly missing here. Words in brackets tell the shape of the fitted curve; partial curves, single points and poor fits give uncertain potencies.

experiment: Cell signaling CRE-BLA (Fsk stim); conditions: CHO CRE-bla reporter (cAMP response element driving beta-lactamase), forskolin EC10, beta-lactamase ratio; measured here: 460 nm blue channel
Outline: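 Reporter-gene assay: CHO cells with beta-lactamase behind cAMP responsive elements, co-treated with compound and EC10 NKH 477 for 3 hours at 37 degrees Celsius. Activity came from the 460/530 nm CCF4 emission ratio.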

Compound | AC50
COc1ccc(N=c2oc3cc(O)ccc3cc2C(=O)NCC2CCCO2)cc1 (stereo unspecified) | 12.6 µM [rising, partial curve]
CN1CCN(c2ccc3nc(-c4ccc5nc(-c6ccc(O)cc6)[nH]c5c4)[nH]c3c2)CC1 | 0.794 µM [rising, full curve, poor fit]
Cc1nc(SCc2nc3ccccc3[nH]2)c2oc3ccccc3c2n1 | 0.0126 µM [rising, full curve]
CC(C)Oc1ccccc1C1CC(=O)Nc2cc3c(cc21)OCCO3 (stereo unspecified) | 6.31 µM [rising, partial curve]
Cc1cc(C)c(C#N)c(SCC(=O)Nc2ccccc2C(N)=O)n1 | 10 µM [rising, single point]
CC(Nc1cc(=O)n(C)c(=O)[nH]1)c1ccccc1 (stereo unspecified) | 1 µM [falling, full curve, poor fit]
CC[C@]1(O)C[C@@H]2CN(CCc3c([nH]c4ccccc34)[C@](C(=O)OC)(c3cc4c(cc3OC)N(C)[C@H]3[C@](O)(C(=O)OC)[C@@H](C(=O)OC)[C@@]5(CC)C=CCN6CC[C@@]43[C@@H]65)C2)C1 | 0.2 µM [rising, full curve]
O=C1C(Cl)=C(NC2CCc3ccccc32)C(=O)c2ncccc21 (stereo unspecified) | 5.01 µM [falling, partial curve]
CN=C(Nc1cc(C)nn1-c1ccccc1)c1ccccc1 | 2 µM [falling, partial curve]
CCCC(=O)Nc1ccc(C(=O)O)cc1NC(=O)CCC | 0.631 µM [rising, full curve, poor fit]
Cc1cc(C)c2c(CC(=O)Nc3nccs3)coc2c1 | 5.01 µM [rising, single point]
COc1cccc2[nH]c3c(N4CCC(C(N)=O)CC4)ncnc3c12 | 0.1 µM [falling, partial curve, poor fit]
Cc1cccn2c(=O)c3cc(C(=O)N4CCCc5ccccc54)n(C)c3nc12 | 0.316 µM [rising, full curve]
Cc1cc(C)c2c(n1)nn1c(N3CCN(c4ccccn4)CC3)cc(C)nc21 | 0.794 µM [rising, full curve, poor fit]
Cc1sc2nc(CSc3nc4ccccc4c(=O)n3CCCN3CCOCC3)[nH]c(=O)c2c1C | 5.01 µM [rising, partial curve]
COc1ccc(CCNS(=O)(=O)c2ccc3c(c2)OCCO3)cc1OC | 6.31 µM [rising, partial curve]
Cc1cc(Nc2cc(F)ccc2C)n2nc(C)nc2n1 | 20 µM [rising, single point]
CCOc1ccc(N(C)S(=O)(=O)c2ccc3[nH]cc(C(=O)NCC4CCCO4)c(=O)c3c2)cc1 (stereo unspecified) | 2.51 µM [falling, partial curve]
Cc1cc(C(=O)OCC(=O)NC2CCS(=O)(=O)C2)c(C)n1-c1ccccc1 (stereo unspecified) | 5.01 µM [rising, single point]
C=CCn1c(SCC#N)nc2ccccc2c1=O | 10 µM [rising, partial curve]
Cc1ccc(-n2c(=O)c3sccc3n(CC(=O)NCc3ccco3)c2=O)cc1 | 0.251 µM [falling, full curve]

Compound | AC50
COc1ccc(Cc2nn3c(-c4ccccc4OC)nnc3s2)cc1 | 10 µM [rising, single point]
CNc1ccnc(-c2cccc(NS(C)(=O)=O)c2)n1 | 3.16 µM [rising, full curve, poor fit]
CCOC(=O)CCn1c(CC(=O)OCC)nc2ccccc21 | 3.16 µM [rising, full curve]
CCCc1nc(SCc2cccnc2)c2c(=O)n(C)c(=O)n(C)c2n1 | 3.16 µM [rising, full curve]
CC(=O)c1c(N2CCN(Cc3ccccc3)CC2)[nH]c(-c2ccccc2)nc1=S | 1.26 µM [falling, partial curve]
COc1ccc(CCNC(=O)c2sc(=S)n(C)c2N)cc1 | 25.1 µM [rising, single point]
CCCc1nc(SCC(=O)N2CCC(Cc3ccccc3)CC2)c2c(=O)n(C)c(=O)n(C)c2n1 | 12.6 µM [falling, partial curve]
CN(C(=O)COC(=O)COc1ccc(Cl)cc1)C1CCCCC1 | 5.01 µM [falling, single point]
COc1cccc(Cn2c(=O)c(CCc3ccccc3)nc3cnc(N4CCNCC4)nc32)c1 | 3.16 µM [rising, partial curve]
COc1ccc(CNc2ncncc2-c2ccc3c(c2)OCO3)c(OC)c1 | 3.98 µM [rising, full curve]
COc1ccccc1NC(=O)CN1CCN(CC(=O)Nc2ccc3c(c2)OCO3)CC1 | 0.398 µM [rising, full curve, poor fit]
Cc1ccc2c(c1)-c1cc(C)nn1C(c1ccc3c(c1)OCO3)N2 (stereo unspecified) | 15.8 µM [rising, partial curve]
COc1ccc(-c2noc(CCC(=O)Nc3cc(OC)ccc3OC)n2)cc1 | 1 µM [falling, partial curve]
C=CCN1CCc2cc(O)c(O)cc2[C@H](c2ccccc2)C1 | 31.6 µM [falling, single point]
CC(C)n1c2ccccc2c2nc3ccccc3nc21 | 3.16 µM [rising, partial curve]
CC(C)NC(=O)C1CCN(C(=O)c2cc3sccc3n2Cc2ccc(F)cc2)CC1 | 3.16 µM [falling, single point]
O=C(COC(=O)CN1C(=O)C2CC=CCC2C1=O)Nc1cc(C(F)(F)F)ccc1N1CCOCC1 (stereo unspecified) | 15.8 µM [rising, single point]
COC(=O)N[C@H](c1ccccc1)[C@@]1(C)C[C@@H]1[C@@H](C)C(=O)Nc1ccc2ccccc2c1 | 5.01 µM [falling, partial curve]
COc1ccccc1NC(=O)c1cc(S(=O)(=O)N2CCOCC2)ccc1Cl | 25.1 µM [rising, single point]
CCCCC(=O)Nc1ccc(NC(=O)C(C)C)cn1 | 0.00316 µM [falling, full curve, poor fit]

2 entries from above, set out differently:

| Compound | AC50 |
| --- | --- |
| COc1ccc(CCNC(=O)c2sc(=S)n(C)c2N)cc1 | 25.1 µM [rising, single point] |
| CCCc1nc(SCC(=O)N2CCC(Cc3ccccc3)CC2)c2c(=O)n(C)c(=O)n(C)c2n1 | 12.6 µM [falling, partial curve] |
